Assay results: US20160158317A1, “Antimicrobial Peptide Variants and Polynucleotides Encoding Same” (Adenium Biotech A/S, priority 2010, published 2016)
Several values for one entry are separate records, joined by “and”; a condition that tells them apart may be missing. Equal entries are not always repeated. Entries after “also recorded” stand apart in the source; their conditions may differ. Not every detail of the peptide structures is certain; ends, links or a residue may be inferred. Marks after values point to notes of the source that are not given here. Where a SMILES comes first, the peptide text is derived from it. Bridges are numbered along the chain shown (N, C = ends).

System: Escherichia coli AID#172
Assay: Peritonitis/sepsis model in neutropenic NMRI mice, effect over time of 7.5 mg/kg (Example 3)
Format: in vivo
Conditions: for CFU levels in blood and peritoneal fluid compared to vehicle: p<0.001; for difference in CFU levels compared to vehicle treatment, blood / difference in CFU levels compared to vehicle treatment, peritoneum: single i.v. dose (NZ17074 7.5 mg/kg, Meropenem 40 mg/kg); for log10 CFU mean Blood / log10 CFU Blood / log10 CFU mean PF / log10 CFU PF: NZ17074 7.5 mg/kg single dose; for log10 CFU mean Blood / log10 CFU mean PF: group mean; for log10 CFU Blood / log10 CFU PF: individual mice; for log10 CFU mean PF / log10 CFU PF: peritoneal fluid
Description: The purpose of this study was to investigate the in vivo efficacy of NZ17074 following intravenous (i.v.) administration of a single dose of 7.5 mg/kg. The effect was tested against Escherichia coli AID#172 in the peritonitis model in neutropenic NMRI mice to avoid the use of mucin as normally applied in the murine peritonitis model. The mice were rendered neutropenic by cyclophosphamide injections. Treatment with 40 mg/kg meropenem was included as a positive control group and treatment with vehicle was included as a negative control group. The colony counts in peritoneal fluid and blood were determined at 2 and 5 hours after treatment.
• 30 outbred, NMRI female mice, 28-32 grams (Harlan Scandinavia) • Escherichia coli AID#172 from Statens Serum Institute, Copenhagen, Denmark. Clinical isolate from a human wound from 2003. Multiresistant (Ampicillin, Ceftazidime, Aztreonam, Gentamicin, Ciprofloxacin) • NZ17074 in Ringer Acetate pH 6, 1.2 ml 0.75 mg/ml. […] Lot no. 09466C Date of expiration: 08-2013 • APODAN®(A-Pharma, 1 g cyclophosphamide) Batch nr. 928491 • Date of expiration: May 2012 • Water, sterile • 0.9% saline, sterile • 5% Horse Blood Agar plates • Lactose bromthymol blue agar plates
The mice were rendered neutropenic by injecting 0.5 ml cyclophosphamide solution intraperitoneally 4 days (200 mg/kg) and 1 day (100 mg/kg) prior to inoculation.
Fresh overnight E. coli AID#172 colonies from a 5% Horse Blood Agar plate were suspended and diluted in sterile saline to approximately 2×10^6CFU/ml.
One hour before start of treatment (time −1 hour) mice were inoculated intraperitoneally with 0.5 ml of the E. coli suspension in the lateral lower quadrant of the abdomen.
The mice were clinically scored for signs of infection at the time of each sampling. • Score 0: Healthy. • Score 1: Minor clinical signs of infection and inflammation e.g. observations of minor signs of distress or changed activity. • Score 2: Clear signs of infection like, social withdrawal, lack of curiosity, changed body position, piloerection, or changes in pattern of movement. • Score 3: Severe signs of infection like stiff movements, lack of curiosity, forced ventilation, changed body position, piloerection, pain, or changes in pattern o movement. • Score 4: Severe pain and the mouse was sacrificed immediately to minimize the suffering of the animal. • Score 5: The mouse was dead.
The mice were treated i.v. in the lateral tail vein over approximately 30 seconds with a single dose of NZ17074, meropenem or vehicle at time 0 hour (see Table 1). The dosing was based on a mean weight of 30 g. Mice that weighed 28-32 g received 0.30 ml solution. Mice that weighed 27-28 g received 0.25 ml solution and mice that weighed 32.1-36 g received 0.35 ml solution. Mouse 17 accidently received 0.35 ml although it weighed 29.5 g.
Colony counts were determined from blood and peritoneal fluid at 0, 2 and 5 hours after treatment according to Table 1.
The mice were anesthetized with O2+CO2 and blood was collected by axilliary cut down. The mice were sacrificed by cervical dislocation and a total of 2 ml sterile saline was injected i.p. and the abdomen gently massaged before it was opened and fluid sampled with a pipette. Each sample was 10 fold diluted in saline and 20-microliter spots were applied on blood agar plates. All agar plates were incubated 18-22 hours at 35° C. in ambient air.
The CFU numbers are log10 transformed before performing calculations to obtain a normal distribution.

[1] = 7.5 mg/kg i.v., 5 hours after treatment
[2] = sampling T = 2, p < 0.01 vs vehicle
[3] = sampling T = 5, p < 0.001 vs vehicle

## CC(C)[C@@H]1NC(=O)CNC(=O)[C@H](CC(N)=O)NC(=O)[C@H](CCCNC(=N)N)NC(=O)[C@H](Cc2ccc(O)cc2)NC(=O)[C@H](C(C)C)NC(=O)[C@@H]2CSSC[C@H](NC(=O)[C@H](C(C)C)NC(=O)[C@H](CCCNC(=N)N)NC1=O)C(=O)N[C@@H](Cc1c[nH]cn1)C(=O)N[C@@H](CCCNC(=N)N)C(=O)N[C@@H](CCCNC(=N)N)C(=O)N[C@H](C(=O)N[C@@H](CC(N)=O)C(=O)O)CSSC[C@H](NC(=O)[C@H](Cc1ccccc1)NC(=O)CN)C(=O)N[C@@H](Cc1c[nH]c3ccccc13)C(=O)N[C@@H](CC(N)=O)C(=O)N[C@@H](C(C)C)C(=O)N2 [SEQ ID NO: 70] (H-GFCWNVCVYRNGVRVCHRRCN-OH; disulfide 3-20, 7-16 (inferred); N-terminus and C-terminus assumed)
7.5 mg/kg i.v., 2 hours after treatment, listed as NZ17074
  CFU levels in blood and peritoneal fluid compared to vehicle: significantly lower CFU levels; also recorded: significant reduction
[1]
  reduction of CFU levels compared to vehicle treatment, blood and peritoneal fluid: > 3 log10 CFU/ml
  CFU levels in blood and peritoneal fluid compared to vehicle: further reduction of the CFU levels
2 hours
  difference in CFU levels compared to vehicle treatment, blood: blood −2.50 log log cfu/ml
  difference in CFU levels compared to vehicle treatment, peritoneum: 2 hours: peritoneum −1.63 log cfu/ml
5 hours
  difference in CFU levels compared to vehicle treatment, blood: blood −3.74 log log cfu/ml
  difference in CFU levels compared to vehicle treatment, peritoneum: 5 hours: peritoneum −3.76 log cfu/ml
[2]
  log10 CFU mean Blood: 2.08** log10 CFU
  log10 CFU mean PF: 3.79** log10 CFU
Sampling T = 2, 7.5 mg/kg
  log10 CFU Blood: 2.04 log10 CFU and 2.20 log10 CFU and 2.00 log10 CFU
  log10 CFU PF: 4.24 log10 CFU and 3.60 log10 CFU and 3.54 log10 CFU
[3]
  log10 CFU mean Blood: 1.00*** log10 CFU
  log10 CFU mean PF: 1.96*** log10 CFU
Sampling T = 5
  log10 CFU Blood: 1.00 log10 CFU
Sampling T = 5, 7.5 mg/kg
  log10 CFU PF: 1.40 log10 CFU and 2.18 log10 CFU and 2.30 log10 CFU
